We go through four molecules from patent EP0400785A2, “Ultraviolet curable phenyl and acrylamide group-containing silicone compositions” (DOW CORNING CORPORATION, priority 1989, dated 1990).

The structures appear in SMILES notation.

This data set in a line: Cure time under ultraviolet radiation. The settings on record: in Acrylamide-polymer B; one weight percent (P-5 two weight percent); 3 seconds per pass, about 400 mJ/cm².

Turning to `CC(C)(O)C(=O)c1ccccc1` [P-1, 2 hydroxy-2-methylphenylpropan-1-one], the “CURE TIME SECONDS” value worked out at 10 s.

For `CCOC(OCC)C(=O)c1ccccc1` [P-2, diethoxyacetophenone], the “CURE TIME SECONDS” value was 15 s.

As to `O=C(c1ccccc1)C1(O)CCCCC1` [P-3, (1-hydroxycyclohexyl)phenylmethanone], the “CURE TIME SECONDS” value came out at 5 s.

Consider `O=C(c1ccccc1)c1ccccc1` [P-4, benzophenone], for which the “CURE TIME SECONDS” value is above 70 s.
